## Library screen at single concentrations

Amino acid sequences for entries named in this document (tags omitted). Residues count along the entry.
UniProt P9WPC5, whole entry: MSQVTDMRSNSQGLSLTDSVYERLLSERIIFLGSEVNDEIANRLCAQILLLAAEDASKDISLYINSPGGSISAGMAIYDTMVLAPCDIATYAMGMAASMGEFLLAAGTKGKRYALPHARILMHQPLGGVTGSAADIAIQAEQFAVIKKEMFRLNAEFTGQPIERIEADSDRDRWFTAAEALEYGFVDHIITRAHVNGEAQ
UniProt P9WPC3, whole entry partner: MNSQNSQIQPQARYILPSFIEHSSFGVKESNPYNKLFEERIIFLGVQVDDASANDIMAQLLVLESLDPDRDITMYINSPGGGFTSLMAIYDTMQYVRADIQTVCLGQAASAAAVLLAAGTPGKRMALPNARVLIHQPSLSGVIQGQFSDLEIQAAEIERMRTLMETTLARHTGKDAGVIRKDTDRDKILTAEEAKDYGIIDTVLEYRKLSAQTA
UniProt Q8IDJ8, 1-583: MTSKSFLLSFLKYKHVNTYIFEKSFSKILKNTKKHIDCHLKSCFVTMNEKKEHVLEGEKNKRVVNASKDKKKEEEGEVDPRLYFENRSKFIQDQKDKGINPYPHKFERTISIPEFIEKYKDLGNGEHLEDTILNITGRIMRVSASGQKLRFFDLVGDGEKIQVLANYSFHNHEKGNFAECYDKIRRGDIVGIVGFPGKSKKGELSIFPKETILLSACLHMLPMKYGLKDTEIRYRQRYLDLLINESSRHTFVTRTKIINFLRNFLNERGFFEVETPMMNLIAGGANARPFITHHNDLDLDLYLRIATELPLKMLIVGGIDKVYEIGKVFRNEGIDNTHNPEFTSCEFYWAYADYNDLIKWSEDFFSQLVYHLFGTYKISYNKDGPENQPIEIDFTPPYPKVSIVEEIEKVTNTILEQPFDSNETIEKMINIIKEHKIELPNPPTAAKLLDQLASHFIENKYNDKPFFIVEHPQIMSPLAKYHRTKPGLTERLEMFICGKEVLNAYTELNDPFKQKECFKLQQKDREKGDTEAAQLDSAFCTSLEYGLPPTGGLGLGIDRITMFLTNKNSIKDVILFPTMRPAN

Data taken from ChEMBL document CHEMBL3988442, “University of Dundee, Small-Polar-MMV Screening Library” (2021).

Values are the deposited “Percent Effect”, in %. The controls that fix the scale are not given in the record; negative values are as filed. Compounds were drawn at random from those tested, without regard to their results. Two or more numbers in one place are separate tests of the same structure; such repeats can differ widely. A dash means the value is not listed here; it may have been measured.

Leishmania in macrophages: 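Cell assay of Leishmania donovani living inside macrophages; the read-out is not stated. Tested at 30 µM. Higher reads as stronger inhibition (inferred: compounds with an IC50 in retests scored well above the rest). Size under these conditions: about 69,000 compounds, about 1,000 of them at 50% or above in at least one test.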
ClpP1P2: 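Protease assay of ClpP1P2, read by the AMC dye that it sets free. Target: ClpP1P2, Mycobacterium tuberculosis (UniProt P9WPC5 and UniProt P9WPC3). Tested at 50 µM. Higher reads as stronger inhibition, judged from the few compounds that gave an IC50. Most other retested compounds had strongly negative values. Size under these conditions: about 69,000 compounds, about 10 of them at 50% or above in at least one test.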
Toxoplasma: 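Assay of Toxoplasma gondii numbers, read through their beta-galactosidase reporter with a colour substrate. Tested at 10 µM. The record gives no direction; the compounds picked for IC50 retests had high values, so higher reads as fewer parasites. About 67,000 compounds were tested under these conditions; 0.38% (about 260) showed 50% or more at least once.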
PfKRS1: 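Lysine-tRNA ligase, Plasmodium falciparum 3D7 (UniProt Q8IDJ8). Enzyme assay of the cytosolic lysyl-tRNA synthetase in 384-well plates, read by luminescence. Concentration: 30 µM. Direction is inferred from only a few compounds that gave an IC50; most scored high, so higher reads as stronger inhibition. About 69,000 compounds were tested under these conditions; 0.071% (about 49) showed 50% or more at least once.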

| compound | Leishmania in macrophages | ClpP1P2 | Toxoplasma | PfKRS1 |
|---|---|---|---|---|
| `O=C1CCCN1CCc1noc(-c2ccc(Cl)cc2)n1` | 10.99% | -1.646% | -7.81% | -0.1072% |
| `CCC(C)NC(=O)CCc1ccc(OCC(F)(F)F)c(OC)c1` (centres unmarked) | -12.01% | -9.775% | -3.143% | 3.797% |
| `CC(C)C1CN(S(=O)(=O)c2cccc(C#N)c2)CCS1` (centres unmarked) | -4.061% | 3.906% | 6.903% | 1.12% |
| `Cc1[nH]ncc1CCCNC(=O)N1CCC(CC(N)=O)CC1` | 5.751% | -4.096% | -9.652% | -0.1307% |
| `COc1ccc(Cl)cc1NC(=O)CCNc1ccc(C#N)cn1` | -12.28% | -5.128% | 28.32% | -1.631% |
| `O=C(NC1CCCN(c2ccccc2Cl)C1)c1ccc(=O)[nH]n1` (centres unmarked) | 26.12% | 22.43% | 1.333% | 4.776% |
| `CN1CC(NC(=O)Cc2csc(C(C)(C)C)n2)CCC1=O` (centres unmarked) | 25.68% | -13.42% | 12.29% | 1.991% |
| `Cc1cc(N(Cc2ccccc2F)C2CC2)n2nc(C(F)(F)F)nc2n1` | 8.376% | -3.286% | -10.29% | 3.458% |
| `CC(C)C(O)C(=O)N1CCC2(CC1)c1nc[nH]c1CCN2S(C)(=O)=O` (centres unmarked) | 24.07% | -0.08708% | 26.66% | 3.628% |
| `CN1CCN([C@@H]2CCN(C3CCOC3)[C@H]2Cc2cnn(C)c2)CC1.O=C(O)C(F)(F)F.O=C(O)C(F)(F)F.O=C(O)C(F)(F)F` (some centres unmarked) | 21.87% | - | 10.55% | - |
| `O=S1(=O)NCC2(CCN(Cc3ccncc3)CC2)Oc2ncccc21` | -6.597% | 8.476% | 22.43% | -6.046% |
| `O=C(NCCCN1CCc2ccccc2C1)c1ccccc1Br` | 36.73% | -8.784% | -8.663% | 1.093% |
| `O=C(NCc1ccccc1CN1CCCC1)Nc1cccnc1` | 26.4% | 4.873% | 1.167% | 6.985% |
| `O=C(O)C(F)(F)F.[H][C@]12CC[C@@]3(N=C(CC)N(C)C3=O)[C@@]1([H])CN(Cc1ccc(C)cc1)C2` | 15.86% | - | -20.57% | - |
| `CC(C)c1ccc(/C=C/CC(=O)NC2CCS(=O)(=O)CC2)cc1` | -27.24% | -6.398% | 2.169% | 5.22% |
| `CN(Cc1nnc(-c2cccs2)o1)C(C(N)=O)c1cccc(F)c1` (centres unmarked) | 18.48% and 19.12% | -8.604% | -3.479% | 8.285% |
| `COCC1CC2(CCN(Cc3ccc(OC)cc3)CC2)CN1C(C)C` (centres unmarked) | - | -3.794% | - | 1.021% |
| `CCc1nc(C2CCCN2C(=O)c2nc(C)n3ccccc23)no1` (centres unmarked) | -31.98% | -143.9% | -14.5% | -0.8494% |
| `COc1ccc(CCNC(=O)C(C)Nc2cc(C)ccc2C)cc1` (centres unmarked) | 3.938% | 4.43% | -6.364% | -0.144% |
| `Cc1cc(C)n(-c2ccc(N3CCC4(CC3)OCCO4)nc2)n1` | 10.08% | -1.34% | 0.9201% | -1.989% |
| `COc1ccc(Cl)cc1CS(=O)(=O)Cc1cc(C)on1` | 9.435% | 4.579% | -2.53% | 5.122% |
| `CS(=O)(=O)N1CCCCCC1c1cc(-c2ccc(F)cc2)no1` (centres unmarked) | -31.77% | -0.1049% | 29.73% | 1.344% |
| `CCc1nc2ccccc2c(=O)n1CC1(O)CCN(S(C)(=O)=O)CC1` | - | 2.711% | - | 7.555% |
| `Cn1nccc1C(=O)N1CC[C@]2(C[C@H](OCc3ccccn3)CO2)C1.O=C(O)C(F)(F)F` | 25.44% | - | -28.77% | - |
| `O=C(O)C(F)(F)F.O=C(O)C(F)(F)F.[H][C@]12CCN(c3ncccn3)CC[C@@]1([H])S(=O)(=O)CCN2Cc1cccnc1` | 17.83% | - | -10.01% | - |
| `Clc1cccc(N2CCC(NCc3cc[nH]n3)C2)c1` (centres unmarked) | 14.09% | -5.593% | -1.523% | 4.046% |
| `COC(=O)NCC(=O)N1CCc2cc(Cl)cc(Cl)c2C1` | 17.94% | -12.62% | 7.894% | 1.508% |
| `O=C(C1CC1)N1CCc2[nH]cnc2C12CCN(C1CCOCC1)CC2` | 14.27% | -4.411% | 9.007% | 1.801% |
| `Cc1nc(N(C)C)cc(C2(C)CCCNC2)n1` (centres unmarked) | 8.621% | -14.57% | 14.24% | 0.3003% |
| `CCCc1cc(C(=O)N(C)Cc2cccc3ncccc23)n(C)n1` | 40.9% | 11.03% | 14.72% | 2.276% |
| `c1csc(-c2noc(CCCN3CCCC3Cn3cncn3)n2)c1` (centres unmarked) | 11.39% | -13.39% | 0.3639% | 1.193% |
| `Cn1cnn(Cc2c(F)cccc2Br)c1=O` | -19.16% | -2.475% | 2.083% | 1.211% |
| `COCCCNS(=O)(=O)c1ccc2c(c1)NC(=O)C(C)O2` (centres unmarked) | -31.72% | 10.94% | 8.239% | 0.1717% |
| `CC(C)Oc1cccc(CN2CCC(C(C)N3CCOCC3)CC2)c1` (centres unmarked) | 60.52% | 3.444% | 1.752% | -0.5597% |
| `CNCC(=O)N1CC(c2cc(Nc3ncccn3)nc(C)n2)C1.Cl` | 5.771% | - | -2.163% | - |
| `O=S(=O)(c1ccc(F)cc1)N1CC[C@H]2[C@H]1CCN2c1ncccn1` | - | -12.22% | - | 6.837% |
| `O=C(O)C(F)(F)F.O=C(O)C(F)(F)F.[H][C@@]12C[C@@H](OCc3ccccc3)CN1CCN(c1ncccn1)C2` | -2.55% | - | 0.1618% | - |
| `Cn1cnc2cc(CCC(=O)Nc3n[nH]c(C4CC4)n3)ccc21` | 38.48% | -8.706% | 12.19% | 3.277% |
| `O=C(O)C(F)(F)F.O=C1COC2(CCN(Cc3ccoc3)CC2)CN1c1ccccc1` | 14.28% | - | -15.55% | - |
| `O=C([C@@H]1CC[C@@H]2[C@@H](CCN2Cc2cccs2)O1)N1CCCCO1` | - | 5.032% | - | -0.5564% |
| `Cc1ccc(CN2CC[C@H](c3nc4cccc(C(N)=O)c4[nH]3)C2)cc1` | -18.93% | -3.157% | 9.99% | -5.375% |
| `CCc1nc(CN2CCCC(NCc3cnn(C(C)(C)C)c3)C2)no1` (centres unmarked) | 23.31% | 1.09% | - | 13% |
| `c1cc(-c2ccc3c(c2)C2(CCNCC2)CC3)ccn1` | 27.13% | 7.373% | 20.98% | 12.02% |
| `CNC(=O)C1Cn2ccnc2C2(CCN(Cc3c(C)noc3C)CC2)O1` (centres unmarked) | 23.79% | 11.04% | -2.498% | -2.239% |

4 of the entries, repeated:

compound,Leishmania in macrophages,ClpP1P2,Toxoplasma,PfKRS1
CC(C)C1CN(S(=O)(=O)c2cccc(C#N)c2)CCS1 (centres unmarked),-4.061%,3.906%,6.903%,1.12%
O=C(O)C(F)(F)F.O=C1COC2(CCN(Cc3ccoc3)CC2)CN1c1ccccc1,14.28%,-,-15.55%,-
Cc1ccc(CN2CC[C@H](c3nc4cccc(C(N)=O)c4[nH]3)C2)cc1,-18.93%,-3.157%,9.99%,-5.375%
COc1ccc(Cl)cc1NC(=O)CCNc1ccc(C#N)cn1,-12.28%,-5.128%,28.32%,-1.631%